Here are results for 1 compound from patent US20260043031A1, “COMPOSITIONS AND METHODS FOR INHIBITING ADENYLATE CYCLASE 9 (AC9)” (INSTITUT DE CARDIOLOGIE DE MONTRÉAL, priority 2022, published 2026).

The structures appear in SMILES notation.

This assay has as its system HepG2 cells. As to the kind of experiment: 3H-CE-LDL cell association assay. Type of assay: cell-based, human. Particulars: HepG2, siAC9 plus 5 μM atorvastatin 24 h before assay. As to the method:
HepG2 (hepatocellular carcinoma) cells were growth in Eagle's minimum essential medium (EMEM). The medium was supplemented with 10% FBS, 100 units/ml penicillin, and 100 μg/ml streptomycin. Cells were cultured in 5% CO2 at 37° C. and were harvested once a week with trypsin-EDTA. For experiments, cells were trypsinized, seeded, and cultured at least for 3 days prior to the assays.
HepG2 cells were transfected with ADCY9, SREBP2, LDLr or scramble siRNA in the presence of Lipofectamine RNAiMAX in Opti-MEM for 72 h unless otherwise stated.
Lipoproteins were isolated from human plasma obtained from BioIVT (Westbury, NY). Before the isolation, the plasma was adjusted to 0.01% ethylenediamine tetraacetate (EDTA), 0.02% sodium azide, and 10 μM phenylmethylsulfonyl fluoride (PMSF). Human LDL (d=1.025-1.063 g/ml) was prepared by ultracentrifugation as described by Brissette et al. (doi: 10.1042/bj3180841). […]
Cell association of [^3H]CE-lipoprotein (20 μg of protein/ml) was measured at 37° C. for 4 h in 12-well plates. […] Nonspecific association was assessed by the addition of 1.5 mg of protein/ml of unlabeled lipoproteins. […] Radioactivity counts in the homogenates were obtained with a beta-counter. […] The specific association was calculated by subtracting the nonspecific association from the total association.

Regarding `CC(C)c1c(C(=O)Nc2ccccc2)c(-c2ccccc2)c(-c2ccc(F)cc2)n1CC[C@@H](O)C[C@@H](O)CC(=O)O` [atorvastatin, reference compound], the “3H-CE-LDL association (LDL cholesterol uptake by LDLr), co-treatment” value was “additive effects”.
